Article PMC6386991 (International Journal of Molecular Sciences, 2019)
Results are given in words; binding and its absence hold for the method and conditions named.

Chains of the proteins cited; added tags and fusions are not shown. Residues count along the entry.
UniProt P22303, residues 52-577: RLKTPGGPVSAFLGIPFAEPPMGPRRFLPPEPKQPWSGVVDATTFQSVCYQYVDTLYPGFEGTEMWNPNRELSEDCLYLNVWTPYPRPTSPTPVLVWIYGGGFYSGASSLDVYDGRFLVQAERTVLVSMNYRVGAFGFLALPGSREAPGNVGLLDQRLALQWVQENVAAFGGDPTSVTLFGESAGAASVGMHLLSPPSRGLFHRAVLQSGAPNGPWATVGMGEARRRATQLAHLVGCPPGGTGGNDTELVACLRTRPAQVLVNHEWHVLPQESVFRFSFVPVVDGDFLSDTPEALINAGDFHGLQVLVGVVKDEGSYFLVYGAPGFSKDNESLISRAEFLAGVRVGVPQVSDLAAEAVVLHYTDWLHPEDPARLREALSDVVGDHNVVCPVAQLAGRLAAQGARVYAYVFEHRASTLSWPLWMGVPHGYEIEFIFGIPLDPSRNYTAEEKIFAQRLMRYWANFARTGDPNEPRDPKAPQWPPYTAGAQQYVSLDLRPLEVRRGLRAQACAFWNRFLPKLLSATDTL
UniProt P27338, residues 1-489: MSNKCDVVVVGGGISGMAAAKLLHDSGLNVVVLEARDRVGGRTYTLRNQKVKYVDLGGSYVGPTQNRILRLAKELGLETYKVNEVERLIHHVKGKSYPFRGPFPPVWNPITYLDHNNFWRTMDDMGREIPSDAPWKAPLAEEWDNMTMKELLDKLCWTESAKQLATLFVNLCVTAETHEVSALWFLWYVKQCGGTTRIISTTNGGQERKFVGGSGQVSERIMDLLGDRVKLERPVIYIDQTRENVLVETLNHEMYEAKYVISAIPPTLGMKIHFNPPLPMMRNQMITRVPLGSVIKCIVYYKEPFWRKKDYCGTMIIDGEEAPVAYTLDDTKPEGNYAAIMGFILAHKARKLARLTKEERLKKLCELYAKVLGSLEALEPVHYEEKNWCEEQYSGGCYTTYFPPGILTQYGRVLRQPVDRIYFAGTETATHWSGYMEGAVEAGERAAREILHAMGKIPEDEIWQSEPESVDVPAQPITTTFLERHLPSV

What was measured:
[1] = biological target: human acetylcholinesterase (hAChE), aa 52-577, bait from pGBKT7-hAChE (human) (UniProt P22303); experiment: two-hybrid; Matchmaker Gold Y2H, small scale mating (5 mL) of Y2HGold [bait AChE in pGBKT7] with Y187 [preys in pGADT7]; no hybrid ligand; DDO/X/A agar plates (Aureobasidin A 200 ng/mL, X-alpha-Gal 40 ug/mL), blue colonies as read-out
[2] = biological target: human acetylcholinesterase (hAChE), aa 52-577, bait from pGBKT7-hAChE (human) (UniProt P22303); experiment: two-hybrid; yeast three-hybrid (Y3H): small scale mating (10 mL) of the same bait and preys with hybrid ligand at 10 uM in the mating mixture and in the DDO/X/A plates; blue colony moved to QDO/X/A with 10 uM hybrid ligand, then to QDO/X/A without the ligand

| Substance | binding [1] | binding [2] |
| --- | --- | --- |
| human microtubule associated protein tau (MAPT), entire protein aa 1-758, prey from pGADT7-hMAPT (from UniProt P10636-1 1-758) | no binding | no binding |
| human monoamine oxidase B (MAO B), cytoplasmic domain aa 1-489, prey from pGADT7-hMAO B (from UniProt P27338 1-489) (domain or fragment) | no binding | no binding |
